# Measured values reported in patent US7258861B2, “TNF-derived peptides for use in treating oedema” (Innogenetics N.V., priority 2001, dated 2007).
# System: isolated rat lungs
# Test: Isolated blood perfused flooded rat lung (weight, lung mechanics, PV curves, histology)
# Details: for lung weight increase: first 15 minutes of reperfusion, before alveolar flooding, TNF 5 μg, peptides 1 mg intratracheal
Substance,time after which Cdyn change is statistically significant compared to NaCl-treated lungs (1 mg) [min],time at which peak AWP change is statistically significant compared to NaCl-treated lungs (1 mg) [min],lung weight increase,"time after which lung weight is statistically different from saline-treated lungs (reperfusion after flooding, 1 mg) [min]"
CGPKDTPEGAELKPWYC (cyclic; listed as Mus musculus) [cyclic mu Ltip],15,60,+0.80±0.61 g,45
TNF: E.coli-derived recombinant murine TNF,–,–,+0.87±0.60 g,–
